Results are given in words; binding and its absence hold for the method and conditions named. Binding seen in cells or lysates may run through a third protein. A yes stands for co-enrichment or nearness to the bait. Other partners may have been found. For some assays here: Where a sequence is shown, tags or fusion partners need not be part of it.
T1: Dmel\Tmem43wt::HA (Drosophila) (UniProt Q9VSB9)
T1 sequence: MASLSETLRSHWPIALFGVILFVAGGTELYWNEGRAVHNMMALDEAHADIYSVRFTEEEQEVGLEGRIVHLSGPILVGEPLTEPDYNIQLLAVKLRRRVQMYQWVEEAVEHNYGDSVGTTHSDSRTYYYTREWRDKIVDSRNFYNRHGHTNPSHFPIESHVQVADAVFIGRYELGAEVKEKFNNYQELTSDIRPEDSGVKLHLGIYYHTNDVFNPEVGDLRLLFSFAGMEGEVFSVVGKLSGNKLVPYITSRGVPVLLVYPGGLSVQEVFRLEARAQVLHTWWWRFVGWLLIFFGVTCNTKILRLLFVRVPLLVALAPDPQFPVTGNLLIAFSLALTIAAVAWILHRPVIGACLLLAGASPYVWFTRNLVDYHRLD

T2: Dmel\Tmem43wt::TurboID (Drosophila) (UniProt Q9VSB9)
T2 sequence: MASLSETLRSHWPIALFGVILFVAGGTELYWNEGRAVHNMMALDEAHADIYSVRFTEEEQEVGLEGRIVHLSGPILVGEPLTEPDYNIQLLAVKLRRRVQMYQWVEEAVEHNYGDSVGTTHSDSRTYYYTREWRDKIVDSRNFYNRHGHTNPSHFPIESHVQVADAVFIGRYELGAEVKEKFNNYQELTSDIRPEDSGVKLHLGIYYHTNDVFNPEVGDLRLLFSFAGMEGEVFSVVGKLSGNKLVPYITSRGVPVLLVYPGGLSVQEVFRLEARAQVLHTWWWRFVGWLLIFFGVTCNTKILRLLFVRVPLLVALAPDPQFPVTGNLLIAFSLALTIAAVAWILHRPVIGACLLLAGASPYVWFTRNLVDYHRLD


Experiments:
[1] = target: T1, Dmel\Tmem43wt::HA (Drosophila); experiment: affinity purification with mass spectrometry; anti-HA-based immunoprecipitation from total protein extracts of third-instar larvae expressing the HA fusion in muscle (mef2-Gal4); isolated proteins identified by mass spectrometry; four biological replicates
[2] = target: T2, Dmel\Tmem43wt::TurboID (Drosophila); experiment: proximity labelling; TurboID fusions expressed in muscle of third-instar larvae (mef2-Gal4); biotinylated proteins purified on streptavidin microbeads and identified by mass spectrometry

| binding [1] | binding [2] | Binder |
| --- | --- | --- |
| binds | – | Porin (protein, UniProt Q94920 1-282) MAPPSYSDLGKQARDIFSKGYNFGLWKLDLKTKTSSGIEFNTAGHSNQESGKVFGSLETKYKVKDYGLTLTEKWNTDNTLFTEVAVQDQLLEGLKLSLEGNFAPQSGNKNGKFKVAYGHENVKADSDVNIDLKGPLINASAVLGYQGWLAGYQTAFDTQQSKLTTNNFALGYTTKDFVLHTAVNDGQEFSGSIFQRTSDKLDVGVQLSWASGTSNTKFAIGAKYQLDDDASVRAKVNNASQVGLGYQQKLRDGVTLTLSTLVDGKNFNAGGHKIGVGLELEA |
| – | binds | Sphingosine-1-phosphatase lyase (Sply) (protein, UniProt Q9V7Y2 1-545) MRPFSGSDCLKPVTEGINRAFGAKEPWQVATITATTVLGGVWLWTVICQDENLYIRGKRQFFKFAKKIPAVRRQVETELAKAKNDFETEIKKSNAHLTYSETLPEKGLSKEEILRLVDEHLKTGHYNWRDGRVSGAVYGYKPDLVELVTEVYGKASYTNPLHADLFPGVCKMEAEVVRMACNLFHGNSASCGTMTTGGTESIVMAMKAYRDFAREYKGITRPNIVVPKTVHAAFDKGGQYFNIHVRSVDVDPETYEVDIKKFKRAINRNTILLVGSAPNFPYGTIDDIEAIAALGVKYDIPVHVDACLGSFVVALVRNAGYKLRPFDFEVKGVTSISADTHKYGFAPKGSSVILYSDKKYKDHQFTVTTDWPGGVYGSPTVNGSRAGGIIAACWATMMSFGYDGYLEATKRIVDTARYIERGVRDIDGIFIFGKPATSVIALGSNVFDIFRLSDSLCKLGWNLNALQFPSGIHLCVTDMHTQPGVADKFIADVRSCTAEIMKDPGQPVVGKMALYGMAQSIPDRSVIGEVTRLFLHSMYYTPSQK |
